## Results of single-concentration screens

Chains of the proteins cited; added tags and fusions are not shown. Residues count along the entry.
UniProt P9WFT3, whole entry: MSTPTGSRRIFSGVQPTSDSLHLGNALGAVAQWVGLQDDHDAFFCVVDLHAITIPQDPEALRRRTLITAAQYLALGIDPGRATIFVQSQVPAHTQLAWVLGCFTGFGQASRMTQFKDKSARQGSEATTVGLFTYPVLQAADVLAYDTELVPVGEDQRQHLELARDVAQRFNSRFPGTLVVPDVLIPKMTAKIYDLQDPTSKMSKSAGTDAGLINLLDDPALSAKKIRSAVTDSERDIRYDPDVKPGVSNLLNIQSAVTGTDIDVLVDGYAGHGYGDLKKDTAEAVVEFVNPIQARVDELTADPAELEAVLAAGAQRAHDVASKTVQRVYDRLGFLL
UniProt P9WPC5, whole entry: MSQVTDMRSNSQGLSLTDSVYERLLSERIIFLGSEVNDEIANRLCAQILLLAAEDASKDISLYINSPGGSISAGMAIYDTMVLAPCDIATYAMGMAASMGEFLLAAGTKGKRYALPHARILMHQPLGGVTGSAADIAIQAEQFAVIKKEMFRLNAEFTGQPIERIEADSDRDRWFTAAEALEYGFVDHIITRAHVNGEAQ
UniProt P9WPC3, whole entry partner: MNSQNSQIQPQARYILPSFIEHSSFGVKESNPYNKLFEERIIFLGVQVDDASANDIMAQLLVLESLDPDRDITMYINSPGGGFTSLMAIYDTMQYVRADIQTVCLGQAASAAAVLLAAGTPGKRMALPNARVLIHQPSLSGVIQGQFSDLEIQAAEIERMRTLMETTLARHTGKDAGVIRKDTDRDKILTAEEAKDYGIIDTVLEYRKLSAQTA
UniProt I6X8D2, whole entry: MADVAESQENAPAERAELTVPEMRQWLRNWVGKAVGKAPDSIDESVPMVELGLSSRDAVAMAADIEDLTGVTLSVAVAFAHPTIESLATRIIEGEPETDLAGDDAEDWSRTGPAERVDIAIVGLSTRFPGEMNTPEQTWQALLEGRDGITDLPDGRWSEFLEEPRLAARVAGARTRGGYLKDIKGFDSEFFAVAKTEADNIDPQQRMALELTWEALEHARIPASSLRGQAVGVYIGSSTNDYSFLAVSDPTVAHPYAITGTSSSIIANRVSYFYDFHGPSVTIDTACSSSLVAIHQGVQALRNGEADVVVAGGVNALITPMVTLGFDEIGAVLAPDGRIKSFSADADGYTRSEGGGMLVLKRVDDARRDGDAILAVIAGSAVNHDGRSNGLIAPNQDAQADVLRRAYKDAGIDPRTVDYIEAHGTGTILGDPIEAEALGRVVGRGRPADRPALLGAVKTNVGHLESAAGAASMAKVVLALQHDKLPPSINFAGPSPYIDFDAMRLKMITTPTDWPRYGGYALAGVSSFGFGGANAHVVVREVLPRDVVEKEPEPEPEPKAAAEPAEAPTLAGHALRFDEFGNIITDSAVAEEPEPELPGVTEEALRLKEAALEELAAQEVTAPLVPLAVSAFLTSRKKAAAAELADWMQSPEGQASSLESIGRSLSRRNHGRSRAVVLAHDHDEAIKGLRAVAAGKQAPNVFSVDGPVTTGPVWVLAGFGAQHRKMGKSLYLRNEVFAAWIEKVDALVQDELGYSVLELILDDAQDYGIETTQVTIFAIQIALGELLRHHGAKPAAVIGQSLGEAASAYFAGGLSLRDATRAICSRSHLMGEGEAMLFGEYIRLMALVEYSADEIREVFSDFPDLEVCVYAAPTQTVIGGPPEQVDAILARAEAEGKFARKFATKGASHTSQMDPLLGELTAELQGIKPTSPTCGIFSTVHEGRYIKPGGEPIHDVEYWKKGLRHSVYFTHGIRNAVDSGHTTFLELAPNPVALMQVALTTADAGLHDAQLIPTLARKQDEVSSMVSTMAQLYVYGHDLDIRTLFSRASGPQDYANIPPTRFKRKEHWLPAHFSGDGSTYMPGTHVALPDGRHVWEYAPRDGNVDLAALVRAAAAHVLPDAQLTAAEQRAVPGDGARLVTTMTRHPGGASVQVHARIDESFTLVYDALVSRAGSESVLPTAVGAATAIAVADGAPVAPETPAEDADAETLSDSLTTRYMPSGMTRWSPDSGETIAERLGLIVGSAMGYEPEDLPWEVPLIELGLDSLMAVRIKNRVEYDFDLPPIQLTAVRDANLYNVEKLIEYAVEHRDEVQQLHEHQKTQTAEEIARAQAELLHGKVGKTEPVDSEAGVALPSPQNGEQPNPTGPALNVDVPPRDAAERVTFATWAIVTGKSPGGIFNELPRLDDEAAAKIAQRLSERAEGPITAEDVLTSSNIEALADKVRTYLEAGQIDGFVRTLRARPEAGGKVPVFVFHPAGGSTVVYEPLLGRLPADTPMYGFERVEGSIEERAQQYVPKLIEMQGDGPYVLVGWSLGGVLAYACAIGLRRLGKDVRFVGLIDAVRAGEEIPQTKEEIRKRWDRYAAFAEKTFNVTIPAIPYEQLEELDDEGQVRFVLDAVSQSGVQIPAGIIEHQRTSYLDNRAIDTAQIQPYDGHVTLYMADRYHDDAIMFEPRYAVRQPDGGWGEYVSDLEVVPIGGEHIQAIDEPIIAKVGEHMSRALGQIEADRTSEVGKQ
UniProt Q8IDJ8, 1-583: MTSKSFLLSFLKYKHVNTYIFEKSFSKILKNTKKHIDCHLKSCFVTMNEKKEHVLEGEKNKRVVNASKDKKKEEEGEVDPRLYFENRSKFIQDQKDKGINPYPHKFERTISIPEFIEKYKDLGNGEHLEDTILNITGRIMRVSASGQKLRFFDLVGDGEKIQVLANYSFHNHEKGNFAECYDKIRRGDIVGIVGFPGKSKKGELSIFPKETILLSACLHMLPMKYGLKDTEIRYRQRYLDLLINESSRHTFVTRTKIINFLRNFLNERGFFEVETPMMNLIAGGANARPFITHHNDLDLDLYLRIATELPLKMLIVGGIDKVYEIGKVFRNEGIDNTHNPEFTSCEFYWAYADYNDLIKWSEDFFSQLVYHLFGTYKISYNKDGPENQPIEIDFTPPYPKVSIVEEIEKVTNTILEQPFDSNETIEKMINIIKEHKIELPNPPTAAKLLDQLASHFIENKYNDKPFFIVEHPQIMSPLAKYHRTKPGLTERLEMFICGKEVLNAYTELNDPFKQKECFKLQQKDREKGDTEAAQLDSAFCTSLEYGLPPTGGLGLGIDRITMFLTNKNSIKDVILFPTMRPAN

MtTrpRS: 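Enzyme assay of tryptophanyl-tRNA synthetase; the read-out is not stated. Target: Tryptophan-tRNA ligase, Mycobacterium tuberculosis (UniProt P9WFT3). Tested at 10 µM. Direction is not recorded; retested compounds ran higher, which suggests that high means inhibition. About 65,000 compounds were tested under these conditions; 0.098% (about 64) showed 50% or more at least once.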
ClpP1P2: 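ClpP1P2, Mycobacterium tuberculosis (UniProt P9WPC5 and UniProt P9WPC3). Protease assay of ClpP1P2, read by the AMC dye that it sets free. Compounds at 50 µM. Higher reads as stronger inhibition, judged from the few compounds that gave an IC50. Most other retested compounds had strongly negative values. About 69,000 compounds were tested under these conditions; 0.015% (about 10) showed 50% or more at least once.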
Pks13 thioesterase: 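Polyketide synthase Pks13, Mycobacterium tuberculosis (UniProt I6X8D2). Enzyme assay of the thioesterase domain of polyketide synthase 13; the read-out is not stated. Concentration: 30 µM. Higher reads as stronger inhibition (inferred from which compounds were picked for retests). Of about 67,000 compounds tested this way, about 300 (0.46%) reached 50% or more in at least one test.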
PfKRS1: 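Enzyme assay of the cytosolic lysyl-tRNA synthetase in 384-well plates, read by luminescence. Target: Lysine-tRNA ligase, Plasmodium falciparum 3D7 (UniProt Q8IDJ8). Concentration: 30 µM. Direction is inferred from only a few compounds that gave an IC50; most scored high, so higher reads as stronger inhibition. Size under these conditions: about 69,000 compounds, about 49 of them at 50% or above in at least one test.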

The filed quantity is “Percent Effect” (%). The record does not define 0% and 100%; most values in the screen are far below 50% and negative numbers occur (in some assays of this library far below -100). This is an unselected part of the compounds tested.

{"smiles": "Cn1c2ncccc2c(=O)n1CC(=O)Nc1ccc(F)c(F)c1", "MtTrpRS": 3.524, "ClpP1P2": 4.832, "Pks13 thioesterase": 15.57, "PfKRS1": -4.106}
{"smiles": "CCc1nnc(N2CCN(c3ccccc3)C(=O)C2)o1", "MtTrpRS": -5.008, "ClpP1P2": 10.28, "Pks13 thioesterase": -23.14, "PfKRS1": 3.554}
{"smiles": "CC(C)Oc1ccc(CNC(=O)CC(F)(F)F)cc1F", "MtTrpRS": 2.437, "ClpP1P2": 5.058, "Pks13 thioesterase": -5.506, "PfKRS1": 4.524}
{"smiles": "Cn1cnc2c1CCN(Cc1csc(-c3ccsc3)n1)C2", "MtTrpRS": -2.004, "ClpP1P2": 30.95, "Pks13 thioesterase": 4.969, "PfKRS1": -2.649}
{"smiles": "COCc1ccccc1NC(=O)c1ccoc1", "MtTrpRS": 2.055, "ClpP1P2": 0.1112, "Pks13 thioesterase": -15.99, "PfKRS1": 8.195}
{"smiles": "COCCN1CCN(Cc2cccc(C(=O)N(C)C)c2)CC1C", "stereo": "stereo unspecified", "MtTrpRS": -0.5912, "ClpP1P2": 14.7, "Pks13 thioesterase": -6.18, "PfKRS1": -5.659}
{"smiles": "COCCCC1CCCCN1C(=O)c1ccc(SCCO)cc1", "stereo": "stereo unspecified", "MtTrpRS": -3.445, "ClpP1P2": 7.178, "Pks13 thioesterase": -12.59, "PfKRS1": -0.5985}
{"smiles": "CC(C)NC(=O)N1CCOC2(CNC2)C1", "MtTrpRS": -3.638, "ClpP1P2": 1.207, "Pks13 thioesterase": -47.08, "PfKRS1": 6.287}
{"smiles": "CC(C(=O)NC1CC1)S(=O)(=O)c1cc2c(cc1Cl)OCCO2", "stereo": "stereo unspecified", "MtTrpRS": 0.9336, "ClpP1P2": -10.97, "Pks13 thioesterase": -5.056, "PfKRS1": 6.859}
{"smiles": "Cc1nn(C)c(C)c1CCC(=O)Nc1nnc(C2CC2)s1", "MtTrpRS": 12.59, "ClpP1P2": 6.924, "Pks13 thioesterase": -24.18, "PfKRS1": 0.471}
{"smiles": "CCn1c(CN(C)Cc2csc(C)n2)nc2cc(F)ccc21", "MtTrpRS": 4.412, "ClpP1P2": -8.636, "Pks13 thioesterase": -42.77, "PfKRS1": 3.516}
{"smiles": "CCN(CC)S(=O)(=O)NCc1ccc(-c2ccc(C(N)=O)c(C)n2)cc1", "MtTrpRS": 7.681, "ClpP1P2": 3.154, "Pks13 thioesterase": 11.84, "PfKRS1": 1.857}
{"smiles": "NC1CCN(S(=O)(=O)c2ccc(C(=O)N3CCSCC3)cc2)C1", "stereo": "stereo unspecified", "MtTrpRS": 2.463, "ClpP1P2": -1.295, "Pks13 thioesterase": -3.228, "PfKRS1": 1.982}
{"smiles": "CC(=O)N1CCN(Cc2ccc(C)o2)CC2(CC(=O)N(C)C2)C1", "stereo": "stereo unspecified", "MtTrpRS": -0.4975, "ClpP1P2": 16.17, "Pks13 thioesterase": -29.49, "PfKRS1": 0.3769}
{"smiles": "COC(CNC(=O)N1CCC(n2cncn2)CC1)c1ccccc1", "stereo": "stereo unspecified", "MtTrpRS": -2.827, "ClpP1P2": -5.756, "Pks13 thioesterase": -4.25, "PfKRS1": -2.032}
{"smiles": "c1cncc(COCC2CN(Cc3cccnc3)Cc3ccnn3C2)c1", "stereo": "stereo unspecified", "MtTrpRS": -4.163, "ClpP1P2": -8.773, "Pks13 thioesterase": -24.06, "PfKRS1": 3.616}
{"smiles": "N#Cc1ccccc1N1CC2(CCCCN2CC2CC2)CC1=O", "stereo": "stereo unspecified", "MtTrpRS": 6.559, "ClpP1P2": 13.06, "Pks13 thioesterase": -49.77, "PfKRS1": -3.84}
{"smiles": "OC1(CNCCc2csc(-c3ncccn3)n2)CCNC1", "stereo": "stereo unspecified", "MtTrpRS": 1.852, "ClpP1P2": -6.45, "Pks13 thioesterase": -26.21, "PfKRS1": 6.811}
{"smiles": "CC(C)CCCNC(=O)Nc1ccc(Cl)c(C(N)=O)c1", "MtTrpRS": 0.1704, "ClpP1P2": -12.46, "Pks13 thioesterase": -15.06, "PfKRS1": 2.117}
{"smiles": "Cc1c(C(C)NC(=O)Nc2ccc(F)c(F)c2)cnn1C", "stereo": "stereo unspecified", "MtTrpRS": -3.445, "ClpP1P2": 0.2008, "Pks13 thioesterase": -26.13, "PfKRS1": 6.357}
{"smiles": "CN(CC1(CO)CC1)C(=O)C1CCC(=O)N(Cc2ccc(Cl)cc2)C1", "stereo": "stereo unspecified", "MtTrpRS": -2.918, "ClpP1P2": -7.985, "Pks13 thioesterase": 0.9984, "PfKRS1": 6.325}
{"smiles": "COc1ccc(CNC(C)c2ccccc2Cl)c(OC)c1OC", "stereo": "stereo unspecified", "MtTrpRS": -0.7965, "ClpP1P2": 12.23, "Pks13 thioesterase": 0.1265, "PfKRS1": 0.6176}
{"smiles": "CCNc1ccc(-c2ccnc3c2ccn3C)nn1", "MtTrpRS": -7.796, "ClpP1P2": -6.759, "Pks13 thioesterase": -24.23, "PfKRS1": 2.447}
{"smiles": "CCOCc1nc2c(c(NC(CC)c3ccncc3)n1)CCNCC2", "stereo": "stereo unspecified", "MtTrpRS": -1.729, "ClpP1P2": -4.101, "Pks13 thioesterase": -8.524, "PfKRS1": 6.81}
{"smiles": "O=C(c1ncccn1)N1C[C@@H]2COC[C@]2(COCc2cccnc2)C1", "MtTrpRS": -7.729, "ClpP1P2": -4.396, "Pks13 thioesterase": -13.24, "PfKRS1": 2.988}
{"smiles": "CC(C)c1nc(C2CCCN(C(=O)c3ccc4[nH]nnc4c3)C2)no1", "stereo": "stereo unspecified", "MtTrpRS": -0.7523, "ClpP1P2": -42.38, "Pks13 thioesterase": -43.72, "PfKRS1": 3.4}

The first 3 entries again:

SMILES	MtTrpRS	ClpP1P2	Pks13 thioesterase	PfKRS1
Cn1c2ncccc2c(=O)n1CC(=O)Nc1ccc(F)c(F)c1	3.524	4.832	15.57	-4.106
CCc1nnc(N2CCN(c3ccccc3)C(=O)C2)o1	-5.008	10.28	-23.14	3.554
CC(C)Oc1ccc(CNC(=O)CC(F)(F)F)cc1F	2.437	5.058	-5.506	4.524

Source: ChEMBL document CHEMBL3988442, “University of Dundee, Small-Polar-MMV Screening Library” (2021).